Data taken from the supplement of paper PMC8612539.
Converted amounts (≈) assume the structure as drawn. This continues a long series; more values of the same kind are listed elsewhere.

Test system: Escherichia coli
Assay: minimum inhibitory concentration (MIC)
Method: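 Broth microdilution MIC (Sensititre BOPO7F bovine plate, CLSI methods) of 19 antimicrobials against field isolates of P. multocida, M. haemolytica, H. somni (deep nasopharyngeal swabs) and E. coli, Enterococcus spp. (rectal swabs) from weaned dairy heifers. Incubation 16-24 h at 35 C. MIC is the lowest concentration preventing visible growth. Values with <= or > lie at the tested range limits. Trimethoprim-sulfamethoxazole is given as the trimethoprim component of a 1:19 mixture.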

NC[C@@H]1O[C@H](O[C@H]2[C@@H](O)[C@H](O[C@@H]3[C@@H](O)[C@H](N)C[C@H](N)[C@H]3O[C@H]3O[C@H](CN)[C@@H](O)[C@H](O)[C@H]3N)O[C@@H]2CO)[C@H](N)[C@@H](O)[C@@H]1O [Neomycin]
Conditions | minimum inhibitory concentration [µg/mL]
isolate (source animal id): 1 | ≤ 4
isolate (source animal id): 2 | ≤ 4
isolate (source animal id): 3 | ≤ 4
isolate (source animal id): 4 | ≤ 4
isolate (source animal id): 5 | ≤ 4
isolate (source animal id): 6 | ≤ 4
isolate (source animal id): 7 | ≤ 4
isolate (source animal id): 17 | > 32
isolate (source animal id): 18 | ≤ 4
isolate (source animal id): 19 | ≤ 4
isolate (source animal id): 20 | ≤ 4
isolate (source animal id): 21 | ≤ 4
isolate (source animal id): 22 | ≤ 4
isolate (source animal id): 23 | ≤ 4
isolate (source animal id): 24 | ≤ 4
isolate (source animal id): 25 | 32 (≈ 52.1 µM)
isolate (source animal id): 26 | ≤ 4
isolate (source animal id): 27 | > 32
isolate (source animal id): 28 | ≤ 4
isolate (source animal id): 29 | > 32
isolate (source animal id): 30 | ≤ 4
isolate (source animal id): 31 | ≤ 4
isolate (source animal id): 32 | > 32
isolate (source animal id): 33 | ≤ 4
isolate (source animal id): 34 | ≤ 4
isolate (source animal id): 35 | ≤ 4
isolate (source animal id): 36 | ≤ 4
isolate (source animal id): 37 | > 32
isolate (source animal id): 38 | ≤ 4
isolate (source animal id): 39 | ≤ 4
isolate (source animal id): 40 | ≤ 4
isolate (source animal id): 41 | ≤ 4
isolate (source animal id): 42 | ≤ 4
isolate (source animal id): 43 | > 32
isolate (source animal id): 44 | ≤ 4
isolate (source animal id): 45 | ≤ 4
isolate (source animal id): 46 | ≤ 4
isolate (source animal id): 47 | ≤ 4
isolate (source animal id): 48 | ≤ 4
isolate (source animal id): 49 | ≤ 4
isolate (source animal id): 50 | ≤ 4
isolate (source animal id): 51 | > 32
isolate (source animal id): 52 | ≤ 4
isolate (source animal id): 53 | > 32
isolate (source animal id): 54 | ≤ 4
isolate (source animal id): 55 | ≤ 4
isolate (source animal id): 56 | ≤ 4
isolate (source animal id): 57 | > 32
isolate (source animal id): 58 | ≤ 4
isolate (source animal id): 59 | ≤ 4
isolate (source animal id): 60 | ≤ 4
isolate (source animal id): 61 | ≤ 4
isolate (source animal id): 62 | ≤ 4
isolate (source animal id): 63 | ≤ 4
isolate (source animal id): 64 | ≤ 4
isolate (source animal id): 65 | > 32
isolate (source animal id): 66 | > 32
isolate (source animal id): 67 | ≤ 4
isolate (source animal id): 68 | 32 (≈ 52.1 µM)
isolate (source animal id): 69 | ≤ 4
isolate (source animal id): 70 | ≤ 4
isolate (source animal id): 71 | ≤ 4
isolate (source animal id): 72 | ≤ 4
isolate (source animal id): 73 | ≤ 4
isolate (source animal id): 74 | ≤ 4
isolate (source animal id): 75 | ≤ 4
isolate (source animal id): 76 | ≤ 4
isolate (source animal id): 77 | > 32
isolate (source animal id): 78 | ≤ 4
isolate (source animal id): 79 | ≤ 4
isolate (source animal id): 80 | ≤ 4
isolate (source animal id): 81 | ≤ 4
isolate (source animal id): 82 | ≤ 4
isolate (source animal id): 83 | ≤ 4
isolate (source animal id): 84 | ≤ 4
isolate (source animal id): 85 | ≤ 4
isolate (source animal id): 86 | 32 (≈ 52.1 µM)
isolate (source animal id): 87 | ≤ 4
isolate (source animal id): 88 | ≤ 4
isolate (source animal id): 89 | ≤ 4
isolate (source animal id): 90 | ≤ 4
isolate (source animal id): 91 | ≤ 4
isolate (source animal id): 92 | ≤ 4
isolate (source animal id): 93 | ≤ 4
isolate (source animal id): 94 | ≤ 4
isolate (source animal id): 95 | ≤ 4
isolate (source animal id): 96 | ≤ 4
isolate (source animal id): 97 | > 32
isolate (source animal id): 189 | ≤ 4
isolate (source animal id): 190 | > 32
isolate (source animal id): 191 | ≤ 4
isolate (source animal id): 192 | ≤ 4
isolate (source animal id): 193 | ≤ 4
isolate (source animal id): 194 | ≤ 4
isolate (source animal id): 195 | ≤ 4
isolate (source animal id): 196 | > 32
isolate (source animal id): 197 | ≤ 4
isolate (source animal id): 198 | ≤ 4
isolate (source animal id): 199 | ≤ 4
isolate (source animal id): 200 | ≤ 4
isolate (source animal id): 201 | ≤ 4
isolate (source animal id): 202 | ≤ 4
isolate (source animal id): 203 | ≤ 4
isolate (source animal id): 204 | ≤ 4
isolate (source animal id): 205 | > 32
isolate (source animal id): 206 | ≤ 4
isolate (source animal id): 207 | ≤ 4
isolate (source animal id): 208 | ≤ 4
isolate (source animal id): 209 | ≤ 4
isolate (source animal id): 210 | > 32
isolate (source animal id): 211 | ≤ 4
isolate (source animal id): 212 | ≤ 4
isolate (source animal id): 213 | > 32
isolate (source animal id): 214 | ≤ 4
isolate (source animal id): 215 | ≤ 4
isolate (source animal id): 216 | ≤ 4
isolate (source animal id): 217 | ≤ 4
isolate (source animal id): 218 | ≤ 4
isolate (source animal id): 219 | ≤ 4
isolate (source animal id): 220 | ≤ 4
isolate (source animal id): 221 | ≤ 4
isolate (source animal id): 222 | ≤ 4
isolate (source animal id): 223 | ≤ 4
isolate (source animal id): 224 | ≤ 4
isolate (source animal id): 225 | ≤ 4
isolate (source animal id): 226 | ≤ 4
isolate (source animal id): 227 | ≤ 4
isolate (source animal id): 228 | ≤ 4
isolate (source animal id): 229 | ≤ 4
isolate (source animal id): 230 | ≤ 4
isolate (source animal id): 231 | ≤ 4
isolate (source animal id): 232 | ≤ 4
isolate (source animal id): 233 | 16 (≈ 26 µM)
isolate (source animal id): 234 | ≤ 4
isolate (source animal id): 235 | ≤ 4
isolate (source animal id): 236 | ≤ 4
isolate (source animal id): 237 | ≤ 4
isolate (source animal id): 238 | ≤ 4
isolate (source animal id): 239 | ≤ 4
isolate (source animal id): 240 | ≤ 4
isolate (source animal id): 241 | ≤ 4
isolate (source animal id): 242 | ≤ 4
isolate (source animal id): 243 | ≤ 4
isolate (source animal id): 244 | ≤ 4
isolate (source animal id): 245 | ≤ 4
isolate (source animal id): 246 | ≤ 4
isolate (source animal id): 247 | ≤ 4
isolate (source animal id): 248 | ≤ 4
isolate (source animal id): 249 | ≤ 4
isolate (source animal id): 250 | ≤ 4
isolate (source animal id): 251 | ≤ 4
isolate (source animal id): 252 | ≤ 4
isolate (source animal id): 253 | ≤ 4
isolate (source animal id): 254 | ≤ 4
isolate (source animal id): 255 | ≤ 4
isolate (source animal id): 256 | ≤ 4
isolate (source animal id): 257 | ≤ 4
isolate (source animal id): 258 | ≤ 4
isolate (source animal id): 259 | ≤ 4
isolate (source animal id): 260 | ≤ 4
isolate (source animal id): 261 | ≤ 4
isolate (source animal id): 262 | > 32
isolate (source animal id): 263 | ≤ 4
isolate (source animal id): 264 | ≤ 4
isolate (source animal id): 265 | ≤ 4
isolate (source animal id): 266 | ≤ 4
isolate (source animal id): 267 | ≤ 4
isolate (source animal id): 268 | ≤ 4
isolate (source animal id): 269 | ≤ 4
isolate (source animal id): 270 | ≤ 4
isolate (source animal id): 271 | ≤ 4
isolate (source animal id): 272 | ≤ 4
isolate (source animal id): 273 | ≤ 4
isolate (source animal id): 274 | ≤ 4
isolate (source animal id): 275 | ≤ 4
isolate (source animal id): 276 | ≤ 4
isolate (source animal id): 277 | ≤ 4
isolate (source animal id): 278 | ≤ 4
isolate (source animal id): 279 | ≤ 4
isolate (source animal id): 280 | ≤ 4
isolate (source animal id): 281 | ≤ 4
isolate (source animal id): 282 | ≤ 4
isolate (source animal id): 283 | ≤ 4
isolate (source animal id): 284 | ≤ 4
isolate (source animal id): 285 | ≤ 4
isolate (source animal id): 286 | > 32
isolate (source animal id): 287 | > 32
isolate (source animal id): 288 | ≤ 4
isolate (source animal id): 289 | ≤ 4
isolate (source animal id): 290 | > 32
isolate (source animal id): 291 | > 32
isolate (source animal id): 292 | > 32
isolate (source animal id): 293 | ≤ 4
isolate (source animal id): 294 | ≤ 4
isolate (source animal id): 295 | > 32
isolate (source animal id): 296 | ≤ 4
isolate (source animal id): 297 | ≤ 4
isolate (source animal id): 298 | ≤ 4
isolate (source animal id): 299 | ≤ 4
isolate (source animal id): 300 | ≤ 4
isolate (source animal id): 301 | ≤ 4
isolate (source animal id): 302 | ≤ 4
isolate (source animal id): 303 | ≤ 4
isolate (source animal id): 304 | ≤ 4
isolate (source animal id): 305 | ≤ 4
isolate (source animal id): 306 | ≤ 4
isolate (source animal id): 307 | ≤ 4
isolate (source animal id): 308 | ≤ 4
isolate (source animal id): 309 | > 32
isolate (source animal id): 310 | ≤ 4
isolate (source animal id): 311 | 16 (≈ 26 µM)
isolate (source animal id): 312 | ≤ 4
isolate (source animal id): 313 | 32 (≈ 52.1 µM)
isolate (source animal id): 314 | ≤ 4
isolate (source animal id): 315 | ≤ 4
isolate (source animal id): 316 | 32 (≈ 52.1 µM)
isolate (source animal id): 317 | > 32
isolate (source animal id): 318 | > 32
isolate (source animal id): 319 | ≤ 4
isolate (source animal id): 320 | 32 (≈ 52.1 µM)
isolate (source animal id): 321 | ≤ 4
isolate (source animal id): 322 | 16 (≈ 26 µM)
isolate (source animal id): 323 | > 32
isolate (source animal id): 324 | ≤ 4
isolate (source animal id): 325 | > 32
isolate (source animal id): 326 | ≤ 4
isolate (source animal id): 327 | ≤ 4
isolate (source animal id): 328 | ≤ 4
isolate (source animal id): 329 | ≤ 4
isolate (source animal id): 330 | ≤ 4
isolate (source animal id): 331 | 32 (≈ 52.1 µM)
isolate (source animal id): 332 | 16 (≈ 26 µM)
isolate (source animal id): 333 | 32 (≈ 52.1 µM)
isolate (source animal id): 334 | > 32
isolate (source animal id): 335 | > 32
isolate (source animal id): 336 | ≤ 4
isolate (source animal id): 337 | 32 (≈ 52.1 µM)
isolate (source animal id): 338 | > 32
isolate (source animal id): 339 | ≤ 4
isolate (source animal id): 340 | > 32
isolate (source animal id): 341 | ≤ 4
